The text below walks through data of US20050272633A1.

Protein sequences, listed by entry. Tags and fused reporters are not part of them. Lines headed by an entry give the natural chain unless they say otherwise; changes in a name come on top.
UniProt Q99558: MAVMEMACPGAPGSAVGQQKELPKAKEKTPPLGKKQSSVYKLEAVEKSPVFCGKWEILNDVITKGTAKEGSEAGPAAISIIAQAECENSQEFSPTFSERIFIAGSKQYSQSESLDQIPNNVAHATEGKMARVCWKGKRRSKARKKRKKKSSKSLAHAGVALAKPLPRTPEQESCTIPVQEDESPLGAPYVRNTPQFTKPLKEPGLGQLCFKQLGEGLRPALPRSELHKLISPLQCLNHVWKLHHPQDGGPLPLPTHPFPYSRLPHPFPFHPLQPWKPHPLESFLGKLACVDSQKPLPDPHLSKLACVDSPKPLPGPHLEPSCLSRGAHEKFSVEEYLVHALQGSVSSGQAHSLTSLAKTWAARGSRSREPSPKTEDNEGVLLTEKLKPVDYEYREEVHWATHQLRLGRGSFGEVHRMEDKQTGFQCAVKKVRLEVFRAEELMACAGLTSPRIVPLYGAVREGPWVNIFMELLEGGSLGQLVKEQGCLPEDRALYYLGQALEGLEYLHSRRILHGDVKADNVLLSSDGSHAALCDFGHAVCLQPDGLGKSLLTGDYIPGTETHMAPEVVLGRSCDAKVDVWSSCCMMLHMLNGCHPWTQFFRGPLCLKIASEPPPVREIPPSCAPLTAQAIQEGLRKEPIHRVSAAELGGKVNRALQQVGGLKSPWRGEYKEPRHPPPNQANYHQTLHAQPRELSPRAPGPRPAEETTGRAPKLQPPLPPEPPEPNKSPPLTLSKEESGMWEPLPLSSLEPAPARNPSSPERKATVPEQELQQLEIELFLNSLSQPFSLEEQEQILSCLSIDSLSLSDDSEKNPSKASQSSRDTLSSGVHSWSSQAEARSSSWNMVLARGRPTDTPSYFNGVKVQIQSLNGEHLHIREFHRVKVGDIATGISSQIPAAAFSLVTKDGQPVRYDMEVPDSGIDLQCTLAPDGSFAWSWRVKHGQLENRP

Test [1] deals with T1, TRAF2 (UniProt Q12933).
T1 sequence (looked up): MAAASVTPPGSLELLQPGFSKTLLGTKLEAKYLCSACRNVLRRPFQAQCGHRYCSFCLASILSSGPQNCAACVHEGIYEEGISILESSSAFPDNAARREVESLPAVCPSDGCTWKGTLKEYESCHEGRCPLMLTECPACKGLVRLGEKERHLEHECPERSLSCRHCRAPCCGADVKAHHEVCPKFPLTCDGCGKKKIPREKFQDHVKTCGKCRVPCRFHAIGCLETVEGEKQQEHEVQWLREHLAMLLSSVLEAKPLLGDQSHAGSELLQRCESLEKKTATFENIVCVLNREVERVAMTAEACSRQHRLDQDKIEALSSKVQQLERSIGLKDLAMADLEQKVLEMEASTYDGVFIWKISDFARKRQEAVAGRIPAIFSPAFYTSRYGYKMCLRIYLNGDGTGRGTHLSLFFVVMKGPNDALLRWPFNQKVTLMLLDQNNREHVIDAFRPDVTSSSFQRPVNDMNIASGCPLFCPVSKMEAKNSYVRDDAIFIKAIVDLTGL
In words: yeast two-hybrid, NIK construct as bait, Traf2 as prey, beta-gal assay.

Test [2] addresses T1, TRAF2. In words: yeast two-hybrid, NIK as bait, Traf2 as prey, beta-gal assay.

Results are given in words; binding and its absence hold for the method and conditions named. Some results given as binding are weak or reduced against the parent protein; the word gives no strength.

Turning to “NIK624-947 (C-terminal domain of NIK) (from UniProt Q99558 624-947) (enzyme)”, the binding entry in test [1] is given as “binds”. As for “NF-κB-inducing kinase, NIK (MAP3K14), full length (from UniProt Q99558 1-947) (enzyme)”, the binding entry in test [2] was “binds”.
